Out of some 53,000 sequences screened, about 3,700 (7%) were called active.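 How the source made its calls: active means gene knockdowns whose robust z-score for IL-1 alpha signal is at least 2 or at most -2, so actives lie on both sides; inactive means the rest.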 This is one part of the list.
Experiment: Components of the Cytosolic LPS Sensing Pathway: Gene Identification via Genome-wide siRNA Screen;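 further: robust z of the log signal after scaling to non-targeting control siRNA wells of the plate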
Conditions: RAW264.7 macrophages, IL-1a HTRF, actives lie on both sides, screened at 100 nM (by protocol), cells primed 5 h with Pam3CSK4 first
Procedure, shortened: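 Mouse macrophage line RAW264.7 is transfected with siRNA (100 nM final), grown 48h, primed with TLR ligand Pam3CSK4 5 h and given intracellular LipidA 24 h. IL-1a in supernatant is read by HTRF and viability by luminescence.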

Sequence | z-score
GGGUGAAGAAUCUUUUUGUTT against Olfr676 | inactive: 0.323
GGUGGAAUAACAGAUAAAATT against Cutc | inactive: 0.255
GCAGGUUCGAAAAUCAAUGTT against Upf3b | inactive: -0.0474
GUAUAGUGUAUCUCAUCAUTT against Olfr1107 | inactive: 1.56
GGUUUUCCCACAUGUCAGATT against Zmat5 | inactive: 0.805
GGACAUGUCGGUUUUGUGCTT against Lrrc8e | inactive: -0.755
GGUCAUCAGCUCUAUGAGCTT against Fry | inactive: 0.0787
GGUCAAUGGCAUGUUGAUCTT against Mc2r | inactive: 0.334
GGAAGCUGUCUUCAAGUCCTT against Phf7 | inactive: -1.3
GGAUUACGGAUCCAAAGUCTT against Eif2b4 | inactive: 1.82
GGGCACAGAGUGUAUCAUCTT against Wap | inactive: 0.969
GCCAAGUCAACCAUAGAAUTT against Setx | inactive: -0.0566
CCUCUGUUGAACCAUCAUUTT against Gpr21 | inactive: 0.127
GGUACCUCUUCUCCUAAAGTT against Vps16 | inactive: 0.106
GGAUGAAUGCAGCUUCCAUTT against Myh14 | active: 2.35
GGACAAACAGGGUUAUUUATT against Srrm4 | inactive: 0.277
GGAUCUUUCCAGGUUACAATT against Dmrta1 | inactive: -0.803
GGAUGAGAAUGGGAAGAUUTT against Naa10 | inactive: -0.38
GGUUAUCGUUCAGUUGGUCTT against Nfkb1 | inactive: 0.499
CCAAUGAUGGAGCUGAAGCTT against Ranbp1 | active: -2.72
GCGAGCGGUUGACUUGUGUTT against Ftsj1 | inactive: 0.732
GCAUCUUAGGCAUUGCUAGTT against Pcna | inactive: -0.156
GGCUGUGCUCAGGAUCAAATT against Olfr683 | active: 2.37

Sequence | z-score
CCUGAUUGGGAUCUCAAGATT against Ccdc12 | inactive: -0.673
GGUCUCAUCGCUUGAUACUTT against Pcdhgb6 | inactive: 0.959
GGACCAGCUUGAAGCUGAATT against Atl2 | inactive: 0.388
CCUAUUUUGGUAAGAUAGATT against Rasl12 | inactive: -0.56
GCAGGAAGAAUGUUUUUCUTT against LOC626846 | inactive: -0.534
CCAGACAUGAUACUCCGGCTT against Tssk3 | active: 2.57
GGAACAGUACCUUUUUGUGTT against Dnase1 | inactive: 0.48
GGACCUACUACGUAAACCATT against Nedd4 | inactive: 0.434
GGGUUCAAGAGAUGAUAUUTT against Usp11 | inactive: 0.245
GGUCCUUGCAUUUCAUCAATT against A630005I04Rik | inactive: 1.6
GCUUGAGAAGACCACCAAATT against Cypt1 | inactive: -1.7
CCCUUUUGAAAUUCUGACCTT against Zfp46 | inactive: -0.491
GCUAUCGGUGUCCUGACCATT against Pfkp | inactive: -0.574
GGAGACGUGAUUGAAAGGGTT against Fabp6 | inactive: -1.21
GGAGGACAUCAAUAAAACATT against Slc2a10 | inactive: 0.038
GGCGGCCUUAGUAGAUAUCTT against Acsl4 | inactive: 0.677
CGUCCAGAGACCAUUAUAATT against Pibf1 | inactive: 1.2
GCGGCAACAUUCUCUUAAGTT against Nuak2 | inactive: 1.12
GGUCUGCUGUUGAUCGUUCTT against Sct | inactive: 1.72
GGACAACCAGCUCAUUGUGTT against Cd82 | inactive: -1.09
CCAAUUCUACCUAUUACAGTT against Shroom2 | inactive: 0.833
GGAAUGAACUCUUUGAAAATT against Opa1 | inactive: 0.376
GGAAGUCCACGAAACUAAATT against Prl3d1 | inactive: 0.359

13 successive entries already listed, for reference:
Sequence | z-score
GCAGGAAGAAUGUUUUUCUTT against LOC626846 | inactive: -0.534
CCAGACAUGAUACUCCGGCTT against Tssk3 | active: 2.57
GGAACAGUACCUUUUUGUGTT against Dnase1 | inactive: 0.48
GGACCUACUACGUAAACCATT against Nedd4 | inactive: 0.434
GGGUUCAAGAGAUGAUAUUTT against Usp11 | inactive: 0.245
GGUCCUUGCAUUUCAUCAATT against A630005I04Rik | inactive: 1.6
GCUUGAGAAGACCACCAAATT against Cypt1 | inactive: -1.7
CCCUUUUGAAAUUCUGACCTT against Zfp46 | inactive: -0.491
GCUAUCGGUGUCCUGACCATT against Pfkp | inactive: -0.574
GGAGACGUGAUUGAAAGGGTT against Fabp6 | inactive: -1.21
GGAGGACAUCAAUAAAACATT against Slc2a10 | inactive: 0.038
GGCGGCCUUAGUAGAUAUCTT against Acsl4 | inactive: 0.677
CGUCCAGAGACCAUUAUAATT against Pibf1 | inactive: 1.2

The list continues:

Sequence | z-score
GCCUGAUGUACAUCACCACTT against Olfr615 | inactive: -0.701
GGACCUGAAAAUCAAAUGATT against Arpc1b | inactive: 1.3
GGCCAAAUAACCUAGUAAUTT against Rpf2 | inactive: 1.15
GGGAGGCAAGCAUAAGACUTT against Cycs | inactive: -0.116
GGAGAAGAUGGAGAAGACCTT against Cavin1 | inactive: 0.946
GCCAUUGUUGCUUACUCGGTT against Hspa14 | inactive: 0.284
GGUGCUGCCCUGUCUAUUGTT against Slc38a8 | inactive: 0.425
GGAUCAUGGAUAUACCACCTT against Smarcb1 | inactive: -1.72
GGUUUUAUCAGAUCCCAAGTT against Dclre1c | inactive: 1.02
CCCUUUAGCUUCCUAAUGUTT against Rhag | inactive: 0.11
GGCAAUAAAUGCUGAGUUATT against Fbxo15 | inactive: 0.664
GGCUAAAACAAGUGAAUGGTT against Gli3 | inactive: -0.619
GGGUAUGAUUAAAAGGUAATT against Mstn | inactive: -1.96
GGAGCUGUAUCGCACGAAATT against Ehd2 | inactive: -0.689
CCACUAAGUCCCAUGCUAGTT against Glycam1 | inactive: 0.188
GGCAGGCUAACGAAGAAUATT against Tusc3 | inactive: 0.309
CGGAUUCGGGAAUUCUAUCTT against Pcgf1 | inactive: 0.143
GCCUUGUACCCUGUAGUGATT against Lalba | inactive: -0.39
GGCCAAUCAAGAUAGCCACTT against Dnajc1 | inactive: 1.12
GGUGAAAAACUAGCUUAAATT against Zfp263 | inactive: -0.0611
GCAAGUCACUUUGGUACCATT against Anxa1 | inactive: 0.879
GAGAUCAGCUUCAAUGCUUTT against Olfr564 | inactive: 0.899
GGAGUUUGUAGCUGACAUCTT against Dcaf15 | inactive: -1.02

From PubChem BioAssay AID1508600 (Functional Genomics Laboratory (NCATS/FGL), 2020)
